Results taken from publication PMC6650407 (Scientific Reports, 2019).

Target: T1, SyFumC (GST-SyFumC; Synechocystis 6803 fumarase C) (Synechocystis sp. PCC 6803, UniProt Q55674)
T1 construct: gene fumC
T1 sequence (Q55674 1-466): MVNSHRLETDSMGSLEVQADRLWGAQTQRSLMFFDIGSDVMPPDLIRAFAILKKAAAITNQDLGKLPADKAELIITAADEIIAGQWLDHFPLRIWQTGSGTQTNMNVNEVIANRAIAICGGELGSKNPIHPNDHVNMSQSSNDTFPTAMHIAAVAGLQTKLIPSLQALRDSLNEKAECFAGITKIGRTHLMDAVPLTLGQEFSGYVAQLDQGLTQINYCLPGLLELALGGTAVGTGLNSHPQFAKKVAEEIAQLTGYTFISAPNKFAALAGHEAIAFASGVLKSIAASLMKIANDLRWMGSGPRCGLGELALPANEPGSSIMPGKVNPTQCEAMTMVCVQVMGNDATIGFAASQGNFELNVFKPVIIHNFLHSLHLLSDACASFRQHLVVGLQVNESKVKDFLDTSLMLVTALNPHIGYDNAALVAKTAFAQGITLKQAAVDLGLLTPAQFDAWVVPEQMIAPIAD
Experiment: inhibition, absorbance at […] nm
Format: biochemical
Settings: read-out: % of control activity at 4 mM

remaining activity at 4000 µM: 45 to 58%
SMILES: O=C(O)CC(O)(CC(=O)O)C(=O)O [citrate]
